In paper PMC8884900:
Results are given in words; binding and its absence hold for the method and conditions named. In cells and extracts the contact can be indirect. Some binding calls cover weakened binding; strength is not graded here.

Protein sequences, listed by entry. Tags and fused reporters are not part of them. Lines headed by an entry give the natural chain unless they say otherwise; changes in a name come on top. Chains listed by the source or under a name are the forms on record and can include a tag or linker. Residues count along the entry.
UniProt Q9UHP3: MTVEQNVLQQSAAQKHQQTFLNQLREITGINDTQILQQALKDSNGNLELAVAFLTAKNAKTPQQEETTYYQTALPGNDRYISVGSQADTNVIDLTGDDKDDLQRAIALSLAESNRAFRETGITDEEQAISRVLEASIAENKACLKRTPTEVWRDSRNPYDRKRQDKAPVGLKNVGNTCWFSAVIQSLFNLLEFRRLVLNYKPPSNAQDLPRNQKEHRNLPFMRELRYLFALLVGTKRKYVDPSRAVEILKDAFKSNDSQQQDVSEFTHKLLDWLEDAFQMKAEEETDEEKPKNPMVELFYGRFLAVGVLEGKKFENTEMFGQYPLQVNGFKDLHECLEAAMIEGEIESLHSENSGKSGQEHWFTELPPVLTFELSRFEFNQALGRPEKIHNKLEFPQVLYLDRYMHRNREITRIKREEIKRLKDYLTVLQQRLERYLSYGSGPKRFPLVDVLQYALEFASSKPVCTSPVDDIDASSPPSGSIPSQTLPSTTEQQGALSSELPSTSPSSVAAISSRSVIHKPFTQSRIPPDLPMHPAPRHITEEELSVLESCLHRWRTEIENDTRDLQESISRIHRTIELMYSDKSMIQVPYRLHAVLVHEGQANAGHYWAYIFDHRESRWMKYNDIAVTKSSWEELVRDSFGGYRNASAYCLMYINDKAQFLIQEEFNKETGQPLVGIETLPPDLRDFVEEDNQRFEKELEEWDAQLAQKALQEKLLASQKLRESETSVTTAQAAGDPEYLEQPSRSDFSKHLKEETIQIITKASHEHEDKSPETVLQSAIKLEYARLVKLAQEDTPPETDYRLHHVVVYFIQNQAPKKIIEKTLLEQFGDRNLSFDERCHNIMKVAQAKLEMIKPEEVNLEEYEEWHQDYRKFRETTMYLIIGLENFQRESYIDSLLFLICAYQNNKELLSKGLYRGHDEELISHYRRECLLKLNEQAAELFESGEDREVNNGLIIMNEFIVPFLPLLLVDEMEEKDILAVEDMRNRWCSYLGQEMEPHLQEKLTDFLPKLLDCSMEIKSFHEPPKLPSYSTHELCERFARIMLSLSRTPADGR
His-tagged USP25a catalytic domain: residues 157-706 of Q9UHP3
UniProt P05067, residues 18-770: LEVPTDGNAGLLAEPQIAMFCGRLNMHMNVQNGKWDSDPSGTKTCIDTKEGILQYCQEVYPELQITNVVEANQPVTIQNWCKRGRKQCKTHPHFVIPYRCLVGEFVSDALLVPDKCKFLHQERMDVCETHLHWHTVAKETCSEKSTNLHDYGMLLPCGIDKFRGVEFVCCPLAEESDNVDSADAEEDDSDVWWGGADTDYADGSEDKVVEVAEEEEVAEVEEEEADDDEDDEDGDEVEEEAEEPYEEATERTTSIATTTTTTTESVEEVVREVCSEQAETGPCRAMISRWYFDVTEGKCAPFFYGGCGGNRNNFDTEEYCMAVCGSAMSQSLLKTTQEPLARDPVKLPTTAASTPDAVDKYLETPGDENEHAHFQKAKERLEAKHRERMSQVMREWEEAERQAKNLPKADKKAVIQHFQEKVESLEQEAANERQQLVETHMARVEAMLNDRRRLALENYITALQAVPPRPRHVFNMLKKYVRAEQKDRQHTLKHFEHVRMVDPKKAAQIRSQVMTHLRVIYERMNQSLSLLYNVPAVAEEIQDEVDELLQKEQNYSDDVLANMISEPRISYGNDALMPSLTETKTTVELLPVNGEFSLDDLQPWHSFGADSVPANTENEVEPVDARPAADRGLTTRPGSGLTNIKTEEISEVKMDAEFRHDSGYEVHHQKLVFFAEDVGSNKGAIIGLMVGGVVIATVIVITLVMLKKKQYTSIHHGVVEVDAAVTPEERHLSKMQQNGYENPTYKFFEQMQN
UniProt P56817, residues 46-501: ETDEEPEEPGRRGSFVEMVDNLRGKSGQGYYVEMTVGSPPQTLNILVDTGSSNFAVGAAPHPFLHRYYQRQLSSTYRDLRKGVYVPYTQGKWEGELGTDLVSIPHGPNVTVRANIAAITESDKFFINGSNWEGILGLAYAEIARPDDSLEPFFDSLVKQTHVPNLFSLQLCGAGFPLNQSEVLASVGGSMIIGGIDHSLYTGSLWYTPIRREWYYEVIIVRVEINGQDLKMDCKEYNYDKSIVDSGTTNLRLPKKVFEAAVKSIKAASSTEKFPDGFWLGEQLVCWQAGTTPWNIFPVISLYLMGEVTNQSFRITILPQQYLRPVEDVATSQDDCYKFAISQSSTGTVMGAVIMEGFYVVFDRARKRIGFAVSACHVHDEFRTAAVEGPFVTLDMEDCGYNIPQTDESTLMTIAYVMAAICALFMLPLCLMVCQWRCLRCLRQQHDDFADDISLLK

Columns and labels:
[1] = target: His-tagged USP25a catalytic domain (human) (UniProt Q9UHP3); experiment: co-IP; purified His-USP25a^Cat with BACE1-HA exogenously expressed in HEK293T cells; mouse IgG as negative control; only the target purified
[2] = target: APP (construct of the co-IPs of Supplemental Figure 4, A and B, not shown) (UniProt P05067); experiment: co-IP; Supplemental Figure 4, A and B; format not shown

Substance | binding [1] | binding [2]
BACE1-HA (from UniProt P56817 46-501) (enzyme) | binds | 
USP25 (construct of the co-IPs of Supplemental Figure 4, A-C, not shown) (from UniProt Q9UHP3 1-1055) (enzyme) |  | binds
